The other results are listed elsewhere or left out. Residues, ends and D or L forms follow the SMILES beside them. *: point of attachment. Cbz = O=C(OCc1ccccc1)*
Experiments:
Experiment in all cases: log2 fold change, soluble protein after heating vs DMSO (PISA); higher = thermal stabilisation; K562 cells, 10 uM, 30 min; active = over 0.2 and 3.5 SD of the protein, either way, in both replicates (recomputed)
[1] = compound: C#Cc1cccc(Nc2ncnc3cc(OCCOC)c(OCCOC)cc23)c1 [erlotinib]
Method in brief: (§1)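 Aliquots of K562 cells (2×10^6 cells/mL) treated with 10 μM compound for 30 min were heated for 3 min over 48°C-58°C. After pooling and extraction in PBS with 0.5% NP-40 at 4°C, soluble protein from a 21,000xg, 90 min spin was quantified by TMTpro 16plex LC-MS/MS with channel sums equalised. Thermal stability is expressed against control samples, from duplicates, as a log2 fold change.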

By UniProt entry, the sequences of proteins in these tests, tags left out. Where a name states a change or a piece, a line headed by the entry shows the natural chain unless it says otherwise.
UniProt Q86U28: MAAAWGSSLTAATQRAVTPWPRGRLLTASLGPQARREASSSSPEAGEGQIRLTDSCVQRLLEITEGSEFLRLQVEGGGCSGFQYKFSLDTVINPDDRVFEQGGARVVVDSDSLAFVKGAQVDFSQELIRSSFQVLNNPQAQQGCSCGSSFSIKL
UniProt Q14116, whole entry, looked up: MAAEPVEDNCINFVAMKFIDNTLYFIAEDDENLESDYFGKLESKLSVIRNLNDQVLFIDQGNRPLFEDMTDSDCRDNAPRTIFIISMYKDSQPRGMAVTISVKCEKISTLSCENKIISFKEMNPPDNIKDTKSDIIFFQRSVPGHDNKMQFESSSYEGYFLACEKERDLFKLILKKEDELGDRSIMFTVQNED
UniProt Q13576: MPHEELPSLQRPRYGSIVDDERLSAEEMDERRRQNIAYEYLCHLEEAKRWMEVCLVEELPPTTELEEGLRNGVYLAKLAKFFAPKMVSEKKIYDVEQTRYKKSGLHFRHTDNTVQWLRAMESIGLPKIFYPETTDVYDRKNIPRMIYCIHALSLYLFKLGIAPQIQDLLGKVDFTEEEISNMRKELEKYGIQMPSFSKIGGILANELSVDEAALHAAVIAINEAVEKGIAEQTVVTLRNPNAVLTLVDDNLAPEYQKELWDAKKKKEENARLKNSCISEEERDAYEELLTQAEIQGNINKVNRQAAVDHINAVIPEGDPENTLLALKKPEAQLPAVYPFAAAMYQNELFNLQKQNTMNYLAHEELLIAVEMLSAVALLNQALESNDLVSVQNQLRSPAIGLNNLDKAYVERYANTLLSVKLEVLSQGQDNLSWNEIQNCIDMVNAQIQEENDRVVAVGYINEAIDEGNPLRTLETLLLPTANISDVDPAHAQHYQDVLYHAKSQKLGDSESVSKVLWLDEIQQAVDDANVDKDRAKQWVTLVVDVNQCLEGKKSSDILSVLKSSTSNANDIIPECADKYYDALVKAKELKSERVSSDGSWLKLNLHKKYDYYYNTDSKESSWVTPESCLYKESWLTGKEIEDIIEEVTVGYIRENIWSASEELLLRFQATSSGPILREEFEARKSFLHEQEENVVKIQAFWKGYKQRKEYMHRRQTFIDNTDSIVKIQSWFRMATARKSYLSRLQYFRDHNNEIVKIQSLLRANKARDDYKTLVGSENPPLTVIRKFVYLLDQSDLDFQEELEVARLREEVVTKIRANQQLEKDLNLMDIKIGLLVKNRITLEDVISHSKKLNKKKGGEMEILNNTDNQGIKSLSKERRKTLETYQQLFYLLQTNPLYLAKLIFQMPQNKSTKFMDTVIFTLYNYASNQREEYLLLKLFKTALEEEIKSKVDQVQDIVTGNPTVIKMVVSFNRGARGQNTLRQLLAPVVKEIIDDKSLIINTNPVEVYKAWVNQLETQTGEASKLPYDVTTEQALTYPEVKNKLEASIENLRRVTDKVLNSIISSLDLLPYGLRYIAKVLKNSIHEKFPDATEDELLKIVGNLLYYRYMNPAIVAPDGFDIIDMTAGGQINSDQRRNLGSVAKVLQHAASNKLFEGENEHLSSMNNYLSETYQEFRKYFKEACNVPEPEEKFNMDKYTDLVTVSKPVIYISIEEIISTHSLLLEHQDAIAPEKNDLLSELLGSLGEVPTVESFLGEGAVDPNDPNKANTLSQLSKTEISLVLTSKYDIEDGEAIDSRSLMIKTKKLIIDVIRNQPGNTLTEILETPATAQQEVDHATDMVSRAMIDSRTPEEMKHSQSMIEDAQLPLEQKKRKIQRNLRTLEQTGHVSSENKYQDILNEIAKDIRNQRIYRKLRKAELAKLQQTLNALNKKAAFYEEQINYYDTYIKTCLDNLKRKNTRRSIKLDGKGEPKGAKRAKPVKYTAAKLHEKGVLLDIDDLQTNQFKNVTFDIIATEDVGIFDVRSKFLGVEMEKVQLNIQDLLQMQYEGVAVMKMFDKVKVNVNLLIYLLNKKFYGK
UniProt Q8TEX9: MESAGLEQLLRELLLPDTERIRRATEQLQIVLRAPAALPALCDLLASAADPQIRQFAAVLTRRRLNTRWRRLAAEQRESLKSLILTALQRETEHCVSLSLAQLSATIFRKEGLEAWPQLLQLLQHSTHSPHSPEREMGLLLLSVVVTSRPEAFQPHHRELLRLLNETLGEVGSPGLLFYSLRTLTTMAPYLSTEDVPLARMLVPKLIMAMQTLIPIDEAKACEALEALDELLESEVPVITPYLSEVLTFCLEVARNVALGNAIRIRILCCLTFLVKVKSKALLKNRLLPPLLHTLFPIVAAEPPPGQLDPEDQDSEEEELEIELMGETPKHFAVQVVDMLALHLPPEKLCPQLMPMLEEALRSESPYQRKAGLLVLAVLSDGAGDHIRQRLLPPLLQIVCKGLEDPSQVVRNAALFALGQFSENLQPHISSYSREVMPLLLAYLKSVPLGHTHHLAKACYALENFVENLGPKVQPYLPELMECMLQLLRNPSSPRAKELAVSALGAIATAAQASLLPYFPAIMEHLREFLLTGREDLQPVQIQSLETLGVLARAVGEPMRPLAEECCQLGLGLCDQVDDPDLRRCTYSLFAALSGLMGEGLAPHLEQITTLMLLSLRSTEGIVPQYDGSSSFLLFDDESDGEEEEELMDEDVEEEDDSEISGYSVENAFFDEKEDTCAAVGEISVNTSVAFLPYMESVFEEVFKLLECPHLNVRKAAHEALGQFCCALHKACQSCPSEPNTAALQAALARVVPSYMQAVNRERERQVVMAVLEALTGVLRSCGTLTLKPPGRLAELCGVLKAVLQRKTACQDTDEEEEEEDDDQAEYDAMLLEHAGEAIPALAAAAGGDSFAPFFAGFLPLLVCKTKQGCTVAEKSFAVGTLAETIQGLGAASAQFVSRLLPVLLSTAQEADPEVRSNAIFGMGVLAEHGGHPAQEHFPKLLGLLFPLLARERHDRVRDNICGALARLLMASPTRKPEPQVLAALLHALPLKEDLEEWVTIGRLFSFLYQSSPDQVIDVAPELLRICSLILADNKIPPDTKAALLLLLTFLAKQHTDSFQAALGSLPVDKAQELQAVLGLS
UniProt P05556, whole entry, looked up: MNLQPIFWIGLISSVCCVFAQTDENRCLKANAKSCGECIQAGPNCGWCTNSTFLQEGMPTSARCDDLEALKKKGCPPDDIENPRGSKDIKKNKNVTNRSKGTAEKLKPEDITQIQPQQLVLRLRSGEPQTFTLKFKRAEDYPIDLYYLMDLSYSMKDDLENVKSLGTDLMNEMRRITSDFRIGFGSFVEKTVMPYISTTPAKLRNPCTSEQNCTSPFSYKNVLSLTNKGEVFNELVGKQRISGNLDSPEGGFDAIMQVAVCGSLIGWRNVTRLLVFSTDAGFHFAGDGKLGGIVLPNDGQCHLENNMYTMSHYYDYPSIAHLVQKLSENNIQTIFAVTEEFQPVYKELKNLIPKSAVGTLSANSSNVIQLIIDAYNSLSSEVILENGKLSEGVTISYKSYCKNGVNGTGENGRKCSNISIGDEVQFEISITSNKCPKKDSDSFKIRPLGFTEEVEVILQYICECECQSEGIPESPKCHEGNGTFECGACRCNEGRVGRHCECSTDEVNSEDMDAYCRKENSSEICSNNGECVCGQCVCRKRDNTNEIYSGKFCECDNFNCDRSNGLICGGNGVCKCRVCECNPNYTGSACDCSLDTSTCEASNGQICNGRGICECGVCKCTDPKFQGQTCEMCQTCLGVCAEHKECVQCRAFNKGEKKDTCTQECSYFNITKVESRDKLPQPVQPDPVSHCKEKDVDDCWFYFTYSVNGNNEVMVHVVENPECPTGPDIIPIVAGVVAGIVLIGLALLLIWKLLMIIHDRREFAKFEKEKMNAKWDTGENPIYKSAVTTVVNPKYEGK
UniProt Q9NV31: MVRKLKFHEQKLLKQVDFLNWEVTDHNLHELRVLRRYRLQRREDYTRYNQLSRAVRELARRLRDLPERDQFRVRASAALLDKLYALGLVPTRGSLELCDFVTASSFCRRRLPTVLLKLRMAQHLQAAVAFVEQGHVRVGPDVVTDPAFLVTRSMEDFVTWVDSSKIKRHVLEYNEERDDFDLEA
UniProt Q9H1K1: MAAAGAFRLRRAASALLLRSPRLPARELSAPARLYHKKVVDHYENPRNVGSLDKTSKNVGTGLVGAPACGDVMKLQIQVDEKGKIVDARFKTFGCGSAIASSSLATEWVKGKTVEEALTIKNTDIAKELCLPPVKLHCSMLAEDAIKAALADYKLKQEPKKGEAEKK
UniProt P0DMQ5: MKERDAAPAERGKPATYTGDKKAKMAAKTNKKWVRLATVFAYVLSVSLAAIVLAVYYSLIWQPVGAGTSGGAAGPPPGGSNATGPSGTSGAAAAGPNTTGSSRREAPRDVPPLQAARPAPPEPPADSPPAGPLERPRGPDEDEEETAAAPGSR
UniProt P53990, whole entry, looked up: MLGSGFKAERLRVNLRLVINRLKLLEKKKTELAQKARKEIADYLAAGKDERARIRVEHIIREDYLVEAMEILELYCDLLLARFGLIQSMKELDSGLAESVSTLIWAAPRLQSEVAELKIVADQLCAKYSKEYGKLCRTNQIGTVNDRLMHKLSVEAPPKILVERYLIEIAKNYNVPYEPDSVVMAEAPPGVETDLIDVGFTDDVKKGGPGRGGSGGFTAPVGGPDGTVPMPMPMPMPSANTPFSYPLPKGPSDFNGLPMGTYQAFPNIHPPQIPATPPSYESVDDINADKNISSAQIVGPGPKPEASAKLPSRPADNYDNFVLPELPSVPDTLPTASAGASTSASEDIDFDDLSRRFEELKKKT
UniProt Q96CN7: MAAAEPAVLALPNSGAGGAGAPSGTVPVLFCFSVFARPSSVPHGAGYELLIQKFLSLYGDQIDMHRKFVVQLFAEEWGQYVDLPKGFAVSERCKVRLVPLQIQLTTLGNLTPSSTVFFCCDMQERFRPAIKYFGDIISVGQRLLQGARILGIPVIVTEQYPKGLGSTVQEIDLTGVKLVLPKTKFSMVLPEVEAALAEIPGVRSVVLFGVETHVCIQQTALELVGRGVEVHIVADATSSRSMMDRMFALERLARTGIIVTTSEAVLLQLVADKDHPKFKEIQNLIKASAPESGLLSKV
UniProt P48735: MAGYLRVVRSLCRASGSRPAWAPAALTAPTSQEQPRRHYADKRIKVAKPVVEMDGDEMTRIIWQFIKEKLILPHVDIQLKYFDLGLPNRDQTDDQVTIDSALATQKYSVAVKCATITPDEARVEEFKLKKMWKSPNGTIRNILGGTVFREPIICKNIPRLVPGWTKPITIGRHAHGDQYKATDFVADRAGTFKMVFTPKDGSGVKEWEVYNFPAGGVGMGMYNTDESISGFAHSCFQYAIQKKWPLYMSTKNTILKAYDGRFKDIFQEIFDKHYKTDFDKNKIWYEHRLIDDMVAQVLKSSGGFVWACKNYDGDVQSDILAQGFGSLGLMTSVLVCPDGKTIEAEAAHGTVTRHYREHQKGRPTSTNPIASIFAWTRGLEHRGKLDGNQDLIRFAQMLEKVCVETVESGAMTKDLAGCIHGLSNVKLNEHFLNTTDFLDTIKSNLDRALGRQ
UniProt P19823: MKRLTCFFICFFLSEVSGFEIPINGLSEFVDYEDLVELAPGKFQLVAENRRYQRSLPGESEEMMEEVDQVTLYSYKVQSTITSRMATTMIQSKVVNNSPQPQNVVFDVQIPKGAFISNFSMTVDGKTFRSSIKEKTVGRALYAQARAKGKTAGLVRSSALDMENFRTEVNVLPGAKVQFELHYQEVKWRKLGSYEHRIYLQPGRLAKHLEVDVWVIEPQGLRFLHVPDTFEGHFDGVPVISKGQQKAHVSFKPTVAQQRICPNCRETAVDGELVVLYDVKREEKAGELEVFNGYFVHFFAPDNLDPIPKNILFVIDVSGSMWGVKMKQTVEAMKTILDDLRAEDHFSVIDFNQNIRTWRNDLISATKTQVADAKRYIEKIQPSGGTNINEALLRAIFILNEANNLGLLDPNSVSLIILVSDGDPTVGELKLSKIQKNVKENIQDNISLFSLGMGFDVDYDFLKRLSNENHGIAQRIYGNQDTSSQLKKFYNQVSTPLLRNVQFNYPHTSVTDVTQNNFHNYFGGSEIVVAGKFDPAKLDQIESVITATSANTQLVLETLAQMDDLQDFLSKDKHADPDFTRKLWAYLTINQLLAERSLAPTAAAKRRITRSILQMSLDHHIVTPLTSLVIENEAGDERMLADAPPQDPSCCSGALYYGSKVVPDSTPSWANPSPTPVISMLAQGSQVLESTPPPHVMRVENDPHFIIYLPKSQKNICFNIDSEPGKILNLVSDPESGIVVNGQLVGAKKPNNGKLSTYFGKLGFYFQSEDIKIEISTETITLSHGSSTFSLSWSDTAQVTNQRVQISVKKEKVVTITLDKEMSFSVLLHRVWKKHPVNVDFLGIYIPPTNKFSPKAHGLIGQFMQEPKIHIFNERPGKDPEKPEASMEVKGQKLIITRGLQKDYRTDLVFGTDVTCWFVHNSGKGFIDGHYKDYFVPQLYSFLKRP

[2] = compound: C/C(=N\NC(=O)C1=CC(=CC=C1)S(=O)(=O)N2CCOCC2)/C3=C(C=CC(=C3)Cl)O
Method in brief: as §1

[3] = compound: C1=CC(=C(C=C1Cl)C2=NC3=NC=CN=C3C(=N2)NC4=CC=NC=C4)F
Method in brief: as §1

[4] = compound: C1=CC(=CC=C1C2=NC3=C(N2)C=C(C=C3)C(=O)N)OC4=CC=C(C=C4)Cl
Method in brief: as §1

[5] = compound: C1=CC2=C(C=CC(=C2)/C=C\3/C(=O)NC(=NCC4=CC=CS4)S3)N=C1
Method in brief: as §1

[6] = compound: C1=CC2=NC=CN=C2C=C1/C=C/3\C(=O)NC(=O)S3
Method in brief: as §1

[7] = compound: C1=CC=C(C=C1)C2=NC(=C(N2)C3=CC=NC=C3)C4=CC(=C(C=C4)Cl)O
Method in brief: as §1

[8] = compound: C1=CC=C2C(=C1)C3=NNC4=CC=CC(=C43)C2=O
Method in brief: as §1

[9] = compound: C1CCN(C1)C(=O)NC2=CC=CC(=C2)NC3=NC=C(C(=N3)NCCC4=CN=CN4)Br
Method in brief: as §1

[10] = compound: C1CN(CCC1(CC2=CC=C(C=C2)Cl)N)C3=NC=NC4=C3C=CN4
Method in brief: as §1

[11] = compound: C1COCCN1CCN2C3=CC=CC=C3N=C2NC(=O)C4=CC(=CC=C4)[N+](=O)[O-] [IRAK-1-4 Inhibitor I]
Method in brief: as §1

[12] = compound: C=CC(=O)N1CCC[C@@H](n2nc(-c3ccc(Oc4ccccc4)cc3)c3c(N)ncnc32)C1 [ibrutinib]
Method in brief: as §1

[13] = compound: CC(=O)c1cnc2ccc(-c3cc(Cl)c(O)c(Cl)c3)nc2c1N[C@H]1CC[C@H](CN(C)C)CC1
Method in brief: as §1

[14] = compound: CC(C)(C)Cn1c(N)nc2ccc(-c3[nH]c(C(C)(C)C)nc3-c3ccc(F)cc3)nc21 [ralimetinib]
Method in brief: as §1

[15] = compound: CC(C)(O)CC(=O)NCCn1ccc2ncnc(Nc3ccc(Oc4cccc(C(F)(F)F)c4)c(Cl)c3)c21
Method in brief: as §1

[16] = compound: CC(C)C1=C2N=C(C=C(N2N=C1)NCC3=CC=CC=C3)NCCCCCCN
Method in brief: as §1

[17] = compound: CC(C)C[C@@H](C=O)NC(=O)[C@H](CC(C)C)NC(=O)[C@H](CC(C)C)NC(=O)OCc1ccccc1
Method in brief: as §1

[18] = compound: CC(C)N(C[C@H]1O[C@@H](n2cnc3c(N)ncnc32)[C@H](O)[C@@H]1O)[C@H]1C[C@@H](CCc2nc3cc(C(C)(C)C)ccc3[nH]2)C1 [pinometostat]
Method in brief: as §1

[19] = compound: CC1=C(C(CC(=O)N1)C2=CC=C(C=C2)C(F)(F)F)C(=O)NC3=C(C=C4C(=C3)C=NN4)F
Method in brief: as §1

[20] = compound: CC1=C(C2=C(C=C1)C(=O)C3=CC=CC=C3N2CCCN)C
Method in brief: as §1

Measured: log2 fold change

ISCA2 (UniProt Q86U28)
inactive: [1] -0.01 | [2] -0.103 | [3] 0.059 | [4] 0.048 | [5] 0.045 | [6] 0.017 | [7] 0.005 | [8] 0.002 | [9] -0.024 | [10] 0.011 | [11] 0.025 | [12] -0.022 | [13] -0.016 | [14] -0.058 | [15] -0.035 | [16] 0.043 | [17] 0.019 | [18] -0.049 | [19] -0.043 | [20] 0.067

IQGAP1 (UniProt P46940)
inactive: [1] 0.024 | [2] 0.099 | [3] 0.052 | [4] -0.009 | [5] 0.009 | [6] 0.007 | [7] 0.014 | [8] 0.01 | [9] 0.001 | [10] -0.027 | [11] -0.01 | [12] -0.039 | [13] -0.131 | [14] -0.025 | [15] -0.116 | [16] -0.074 | [17] -0.004 | [18] -0.012 | [19] 0.001 | [20] -0.01

IL18 (UniProt Q14116)
inactive: [1] 0.047 | [2] 0.009 | [3] 0.046 | [4] -0.021 | [5] 0.029 | [6] 0.033 | [7] -0.045 | [8] -0.023 | [9] -0.043 | [10] 0.058 | [11] 0.047 | [12] 0.047 | [13] 0.033 | [14] -0.061 | [15] -0.019 | [16] 0.079 | [17] 0.09 | [18] 0.007 | [19] 0.05 | [20] 0

IMPDH2 (UniProt P12268)
inactive: [1] -0.117 | [2] -0.046 | [3] -0.107 | [4] 0.013 | [5] -0.042 | [6] -0.018 | [7] -0.031 | [8] 0.038 | [9] 0.013 | [10] -0.018 | [11] -0.054 | [12] -0.013 | [13] 0.005 | [14] -0.002 | [15] 0.007 | [16] 0.01 | [17] 0.003 | [18] 0.021 | [19] 0.024 | [20] -0.013

IQGAP2 (UniProt Q13576)
inactive: [1] 0.195 | [2] 0.139 | [3] -0.042 | [4] -0.005 | [5] 0.024 | [6] -0.015 | [7] 0.029 | [8] -0.05 | [9] -0.078 | [10] -0.14 | [11] -0.083 | [12] -0.071 | [13] -0.206 | [14] 0.027 | [15] -0.154 | [16] -0.319 | [17] 0.06 | [18] 0.145 | [19] -0.036 | [20] -0.01

IPO4 isoform 2 (UniProt Q8TEX9)
inactive: [1] 0.011 | [2] 0.043 | [3] -0.038 | [4] -0.049 | [5] -0.016 | [6] 0.07 | [7] 0.085 | [8] -0.028 | [9] -0.062 | [10] -0.084 | [11] -0.051 | [12] -0.064 | [13] 0.085 | [14] 0.206 | [15] -0.07 | [16] -0.232 | [17] 0.07 | [18] 0.12 | [19] -0.03 | [20] 0.273

ITGB1 (UniProt P05556)
inactive: [1] -0.004 | [2] -0.009 | [3] 0.025 | [4] -0.008 | [5] -0.048 | [6] 0.003 | [7] 0.017 | [8] 0.01 | [9] 0.015 | [10] 0.057 | [11] 0.039 | [12] 0.011 | [13] 0 | [14] -0.045 | [15] 0.022 | [16] 0.089 | [17] -0.003 | [18] -0.01 | [19] 0.006 | [20] -0.053

INPP4A (UniProt Q96PE3)
inactive: [1] -0.007 | [2] 0.046 | [3] 0.051 | [4] 0.007 | [5] 0.019 | [6] 0.003 | [7] 0.114 | [8] -0.057 | [9] -0.057 | [10] 0.027 | [11] 0.034 | [12] 0.048 | [13] -0.008 | [14] 0.077 | [15] -0.026 | [16] 0.065 | [17] -0.025 | [18] -0.003 | [19] -0.092 | [20] 0.017

IMP3 (UniProt Q9NV31)
inactive: [1] 0.197 | [2] -0.232 | [3] 0.06 | [4] -0.208 | [5] -0.13 | [6] -0.125 | [7] -0.169 | [8] 0.102 | [9] -0.136 | [10] 0.437 | [11] -0.417 | [12] 0.314 | [13] -0.01 | [14] 0.004 | [15] -0.133 | [16] 0.1 | [17] -0.063 | [18] 0.57 | [19] -0.068 | [20] 0.088

ISCU (UniProt Q9H1K1)
inactive: [1] -0.024 | [2] -0.078 | [3] 0 | [4] 0.001 | [5] 0.012 | [6] 0.009 | [7] -0.003 | [8] -0.011 | [9] 0.052 | [10] 0.041 | [11] -0.002 | [12] -0.001 | [13] -0.001 | [14] -0.071 | [15] 0.031 | [16] 0.016 | [17] -0.026 | [18] -0.023 | [19] -0.028 | [20] -0.024

Random excerpt: two entries already listed, in no set order.
ITGB1 (UniProt P05556)
inactive: [1] -0.004 | [2] -0.009 | [3] 0.025 | [4] -0.008 | [5] -0.048 | [6] 0.003 | [7] 0.017 | [8] 0.01 | [9] 0.015 | [10] 0.057 | [11] 0.039 | [12] 0.011 | [13] 0 | [14] -0.045 | [15] 0.022 | [16] 0.089 | [17] -0.003 | [18] -0.01 | [19] 0.006 | [20] -0.053

INPP4A (UniProt Q96PE3)
inactive: [1] -0.007 | [2] 0.046 | [3] 0.051 | [4] 0.007 | [5] 0.019 | [6] 0.003 | [7] 0.114 | [8] -0.057 | [9] -0.057 | [10] 0.027 | [11] 0.034 | [12] 0.048 | [13] -0.008 | [14] 0.077 | [15] -0.026 | [16] 0.065 | [17] -0.025 | [18] -0.003 | [19] -0.092 | [20] 0.017

More results:

INTS9 (UniProt Q9NV88)
inactive: [1] 0.018 | [2] 0.015 | [3] 0.031 | [4] 0.017 | [5] 0.084 | [6] 0.033 | [7] 0.049 | [8] 0.018 | [9] -0.036 | [10] -0.005 | [11] 0.007 | [12] 0.007 | [13] -0.04 | [14] -0.026 | [15] 0.002 | [16] -0.008 | [17] 0.016 | [18] -0.003 | [19] -0.028 | [20] 0.008

INAFM2 (UniProt P0DMQ5)
inactive: [1] -0.051 | [2] 0.011 | [3] -0.167 | [4] -0.025 | [5] -0.021 | [6] -0.089 | [7] 0.072 | [8] 0.073 | [9] 0.027 | [10] -0.088 | [11] 0.078 | [12] 0.113 | [13] -0.016 | [14] 0.112 | [15] -0.02 | [16] 0.099 | [17] -0.039 | [18] -0.183 | [19] 0.118 | [20] 0.072

IST1 isoform 5 (UniProt P53990)
inactive: [1] 0.019 | [2] 0.067 | [3] 0.081 | [4] -0.014 | [5] 0.02 | [6] 0.035 | [7] -0.053 | [8] 0.002 | [9] 0.016 | [10] -0.061 | [11] 0.017 | [12] -0.015 | [13] -0.011 | [14] 0.008 | [15] -0.118 | [16] -0.169 | [17] 0.035 | [18] 0.005 | [19] 0.103 | [20] 0.068

ISOC1 (UniProt Q96CN7)
inactive: [1] -0.005 | [2] 0.017 | [3] 0.014 | [4] -0.026 | [5] 0.053 | [6] 0.006 | [7] -0.017 | [8] -0.011 | [9] 0 | [10] 0.046 | [11] 0.014 | [12] 0.024 | [13] -0.025 | [14] -0.073 | [15] 0 | [16] 0.043 | [17] -0.016 | [18] -0.05 | [19] -0.012 | [20] 0.027

IDH2 (UniProt P48735)
inactive: [1] -0.01 | [2] 0.042 | [3] 0.11 | [4] 0.045 | [5] 0.013 | [6] -0.119 | [7] 0.031 | [8] -0.004 | [9] 0.01 | [10] 0.019 | [11] 0.034 | [12] 0.052 | [13] -0.011 | [14] -0.001 | [15] -0.027 | [16] 0.069 | [17] -0.036 | [18] -0.028 | [19] -0.074 | [20] 0.005

ITIH2 (UniProt P19823)
inactive: [1] -0.132 | [2] -0.174 | [3] 0.054 | [4] 0.113 | [5] 0.131 | [6] -0.024 | [7] -0.005 | [8] -0.123 | [9] 0.147 | [10] 0.26 | [11] 0.082 | [12] 0.291 | [13] 0.168 | [14] -0.029 | [15] 0.232 | [16] 0.189 | [17] 0.021 | [18] -0.042 | [19] 0.018 | [20] -0.184

Reference: the supplement of paper PMC10849652
